# From PubChem BioAssay AID493014 (National Center for Advancing Translational Sciences (NCATS), 2011)
# Among all 340,000 compounds or so, about 170 (0.05%) were called active. Inconclusive means that the source gave no clear call. Such entries were picked first, then a sample of the others. The call rests on the fitted dose curve; in most records, active means well fitted inhibition curve with a large enough effect in the signal ratio, with a control signal flat (not every such curve was filed as active); inconclusive means small, poorly fitted or top-dose-only effect, or effect the other way, or a change in a side signal; inactive means flat fitted curve, though single readings scatter; the % refers to the signal ratio. Where the call is inconclusive, the potency comes from a doubtful curve fit.
# Experiment: qHTS Assay to Find Inhibitors of Chronic Active B-Cell Receptor Signaling;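 on activity change, negative = inhibition: plate controls were basal doxycycline-induced cells for no effect and cells given 10 µM MG132 for full effect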
# Details: ABC-DLBCL IkBa-CBG/CBR reporter, luminescence ratio (green luciferase fused to IkBa over red control in TMD8 lymphoma cells), 4 h; activity change, negative = inhibition: at 46.1 µM (top of the series) unless noted
# Procedure, shortened: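 Cell line TMD8 (human ABC DLBCL), stably expressing tet-inducible CBG68-IkBa fusion and CBR; IMDM/0.5% FBS; cpd up to 46 uM; dox induction, 4 h, 37C/5% CO2; dual luminescence; green/red ratio; MG132 control.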
# Potency means the concentration at half of the fitted maximal effect.
SMILES,"activity change, negative = inhibition",Potency
Clc1ccc(-c2nc(NCCCN3CCOCC3)c3ccccc3n2)cc1,inconclusive: 13.5%,
COc1ccc(S(=O)(=O)NC2CCCC2)c(Cl)c1Cl,inconclusive: 0.744%,
COc1ccc(OC)c(/C=C/c2ccc3cccc(O)c3n2)c1,,active: 11.2 µM
O=C(/C=C/c1ccc(-c2ccccc2[N+](=O)[O-])o1)c1ccccc1,,"inconclusive: 29.1 µM [cytotoxic, single point]"
O=C(N/N=C/c1ccc(O)c(O)c1)N/N=C/c1ccc(O)c(O)c1,,"inconclusive: 35.5 µM [falling, single point]"
Nc1nnc(CC(=O)N/N=C/c2ccc(-c3ccccc3)o2)s1,inconclusive: 17.1%,
CCc1[nH]c(=O)c(C#N)c2c1COC(C)(C)C2,inconclusive: 2.91%,
C/C=C/c1ccc(OCC(=O)NNC(=O)CN(C)S(=O)(=O)c2ccc(C)cc2)c(OC)c1,inactive,
CN(C[C@H](Cc1ccccc1)N(C[C@H](Cc1ccccc1)N(CCc1cc(C(F)(F)F)cc(C(F)(F)F)c1)N=O)N=O)N=O,inactive,
CC(C)Nc1ncnc2c1cnn2-c1ccc(Cl)cc1,,"inconclusive: 25.9 µM [falling, single point]"
CC1(C)CC(C)(O)N(Cc2ccccc2)C(=S)N1 (stereo unspecified),inactive,
CC(=O)Nc1ccc(N(C(=O)Cc2cccs2)C(C(=O)NC2CCCC2)c2ccncc2)cc1 (stereo unspecified),inactive,
COc1ccc(N2CC(NC(=O)c3ccc4c(c3)OCO4)CC2=O)cc1 (stereo unspecified),inactive,
CCC(Sc1nc2n[nH]c(C)c2c(=N)n1-c1cccc(Cl)c1C)C(=O)N(CC)CC (stereo unspecified),inconclusive: -2.3%,
C=C(C)C(=O)OCC(C)C,inconclusive: -1%,
COc1cccc(NC(=O)C2CCCN(S(=O)(=O)c3ccc4[nH]c(=O)ccc4c3)C2)c1 (stereo unspecified),inactive,
O=C(NC1CCCCC1)c1cccnc1Sc1ccccc1Cl,inconclusive: 0.711%,
Cc1occc1C(=O)N/N=C/c1cnn(C)c1C,,"inconclusive: 29.1 µM [rising, single point]"
Cc1c(NC(=O)c2cccc(NC(=O)c3ccco3)c2)cccc1C(=O)O,,"inconclusive: 20.6 µM [falling, partial curve]"
CCN1CCN(C(=O)NC2CC(=O)N(c3ccc(OC)cc3)C2)CC1 (stereo unspecified),inactive,
CCNC(=S)N1CCN(c2nc(CC)nc3sc4c(c23)CCCC4)CC1,inconclusive: 1.08%,

SMILES,"activity change, negative = inhibition",Potency
CCOC(=O)C1(Cc2ccc(Cl)cc2)CCN(C(=O)C2=NNC(=O)CC2)CC1,,"inconclusive: 5.01 µM [rising, partial curve]"
O=C(CCl)NCCN1C(=O)S/C(=C\c2cccnc2)C1=O,inactive,
Cc1ccc(S(=O)(=O)Nc2ccccc2N2CCCCC2)cc1,inconclusive: 0.622%,
Cc1ccc(CSc2nnc(-c3ccccn3)n2C)cc1,inconclusive: 5.42%,
O=C(O)/C=C/C(=O)NC1CCC(CC2CCC(NC(=O)/C=C/C(=O)O)CC2)CC1 (stereo unspecified),,"inconclusive: 2.82 µM [falling, full curve, poor fit]"
CC1CCCN(c2nc3ccsc3c(=O)s2)C1 (stereo unspecified),inconclusive: 3.1%,
CC(=O)Nc1ccc(NC(=O)Cn2nc(C(=O)Nc3ccc(C)cc3)ccc2=O)cc1,,"inconclusive: 0.112 µM [rising, full curve, poor fit]"
O=C(NNC(=S)Nc1ccccc1)c1ccc2ncccc2c1,,"inconclusive: 35.5 µM [rising, single point]"
Cn1c(-n2c(CCCN3C(=O)c4ccccc4C3=O)nc3ccccc3c2=O)nc2ccccc21,inconclusive: 7.5%,
COC(=O)c1ccccc1N=Nc1c(C)noc1C,inconclusive: -10.1%,
NC(=O)C1CN(S(=O)(=O)c2ccc(Cl)cc2F)c2ccccc2O1 (stereo unspecified),inconclusive: -13.7%,
CCc1nn(CCCC(=O)NCc2ccco2)c(=O)c2cc3occc3n12,inconclusive: -7.21%,
CCN(CC)S(=O)(=O)c1ccc(-c2cn3cc(Cl)ccc3n2)cc1,inactive,
O=C(CN1CCN(c2ccccc2O)CC1)Nc1ccnn1C1CCCC1,inactive,
Cc1ccc(C(=O)NCC(=O)NCC(=O)OCC(=O)c2cccs2)cc1,inconclusive: 3.28%,
COc1ccccc1CNC(=O)C(C)Sc1ccc(C)cc1 (stereo unspecified),inactive,
COc1ccc(N2CCN(C(c3cccs3)C(C)NC(=O)c3ccc4c(c3)OCO4)CC2)cc1 (stereo unspecified),inconclusive: 0.626%,
CC(C)c1ccc(N(C(=O)c2snc(C(N)=O)c2N)C(C(=O)NCC2CCCO2)c2ccc(N(C)C)cc2)cc1 (stereo unspecified),,"inconclusive: 3.55 µM [falling, single point]"
COc1ccc(C(=O)N[C@H](C(=O)OCC(=O)NC(=O)c2cccn2C)C(C)C)cc1,,"inconclusive: 6.51 µM [falling, partial curve]"
O=[N+]([O-])c1cc(F)c2cccnc2c1O,,active: 15.8 µM
CCN(CC)CCN(C(=O)c1ccc2c(c1)OCCO2)c1nc2c(Cl)cccc2s1,inactive,

SMILES,"activity change, negative = inhibition",Potency
Cc1ccc2nc(-c3ccc4c(c3)NC(=O)CO4)cn2c1,inconclusive: 17%,
COc1ccccc1/C=C/C(=O)Nc1ccc2c(c1)OCCO2,,"inconclusive: 23.1 µM [falling, single point]"
Cc1nc(NC(=O)CSc2nnc3ccccn23)c(Cl)cc1Cl,inconclusive: -18.4%,
COc1ccc(-c2nc3c4ccccc4n(CC(=O)N4CCN(c5ccc(F)cc5)CC4)c(=O)n3n2)cc1,,"inconclusive: 35.5 µM [falling, single point]"
O=C(c1cc(-c2ccc3c(c2)OCO3)on1)N1CCN(c2ccccc2)CC1,,"inconclusive: 31.6 µM [rising, partial curve]"
COc1ccc(CC(NC(C)=O)C(=O)NC2CCN(C(=O)Nc3ccc(C#N)cc3)CC2)cc1OC (stereo unspecified),inconclusive: 11.2%,
CCOCCCNC(=S)NCCNc1nc2c(C)cccc2cc1C#N,inconclusive: -14.7%,
CN1CC2=Cc3ccccc3OC23Oc2ccccc2C=C3C1,,"inconclusive: 14.1 µM [falling, partial curve]"
Cc1ccsc1/C=C1/SC(N2CCOCC2)=NC1=O,inconclusive: 5.09%,
O=C1NC(c2cccs2)Nc2sc3c(c21)CCCC3 (stereo unspecified),inactive,
COc1ccc(C2(c3ccc(O)cc3O)CC(c3ccccc3Cl)NC(=S)N2)cc1 (stereo unspecified),inactive,
Cn1cc(C(=O)c2ccc(Cl)cc2Cl)cc1C(=O)NN,,"inconclusive: 3.98 µM [falling, partial curve, poor fit]"
CCOC(=O)/C(=N\Nc1cc(Cl)ccc1Cl)N1CC(C)OC(C)C1 (stereo unspecified),inactive,
O=C(CSc1nc2c([nH]c3ccccc32)c(=O)n1-c1cccc(Cl)c1)N1CCOCC1,inconclusive: 3.29%,
Cc1cc(S(=O)(=O)N2CCN(c3ccccc3F)CC2)ccc1-n1cnnn1,inactive,
COc1ccc(OC)c(C(=O)c2coc3ccc(O)cc23)c1,,"inconclusive: 25.1 µM [falling, single point]"
O=C(COC(=O)c1ccc[nH]c1=O)NCCc1ccc(Cl)cc1Cl,inconclusive: 3.73%,
CC(C)(C)NC(=O)C(=O)NNC(=O)c1cccc(F)c1,,"inconclusive: 35.5 µM [falling, single point]"
CC(C)(C)Sc1ccc(/C=N/O)cc1[N+](=O)[O-],,"inconclusive: 35.5 µM [falling, partial curve, poor fit]"
CCC(NC(=O)c1ccccc1NC(=O)c1ccccc1)C(=O)O (stereo unspecified),,"inconclusive: 2.82 µM [falling, full curve]"
O=C(O)CSc1nnc(C2CC2)n1-c1ccccc1,inconclusive: 3.49%,

# Molecules shown so far with a furan ring, fused or not (six):
SMILES,"activity change, negative = inhibition",Potency
O=C(/C=C/c1ccc(-c2ccccc2[N+](=O)[O-])o1)c1ccccc1,,"inconclusive: 29.1 µM [cytotoxic, single point]"
Nc1nnc(CC(=O)N/N=C/c2ccc(-c3ccccc3)o2)s1,inconclusive: 17.1%,
Cc1occc1C(=O)N/N=C/c1cnn(C)c1C,,"inconclusive: 29.1 µM [rising, single point]"
Cc1c(NC(=O)c2cccc(NC(=O)c3ccco3)c2)cccc1C(=O)O,,"inconclusive: 20.6 µM [falling, partial curve]"
CCc1nn(CCCC(=O)NCc2ccco2)c(=O)c2cc3occc3n12,inconclusive: -7.21%,
COc1ccc(OC)c(C(=O)c2coc3ccc(O)cc23)c1,,"inconclusive: 25.1 µM [falling, single point]"

# (continued)

SMILES,"activity change, negative = inhibition",Potency
Cc1ccc(NC(=O)CC2SC(=O)N(c3ccccc3)C2=O)cc1 (stereo unspecified),,"inconclusive: 5.8 µM [falling, partial curve]"
CCO/N=C1\C(=O)N(c2ccccc2)c2ccccc21,inconclusive: 4.55%,
Nc1cc2c3c(cccc3c1)C(=O)N(CCN1CCCC1)C2=O,,"inconclusive: 35.5 µM [rising, partial curve, poor fit]"
COCCn1c(=O)[nH]c2cc(C(=O)N3CCN(c4ccccc4F)CC3)ccc2c1=O,inconclusive: 10.8%,
CCc1ccc(C(=O)CN(C#N)c2nc(C)cc(C)n2)cc1,inconclusive: 19.1%,
O=C(NNc1ccc(C(F)(F)F)cc1[N+](=O)[O-])c1ccc(NS(=O)(=O)c2ccc(F)cc2)cc1,inconclusive: 1.38%,
CC1(C)C(C=C(Cl)Cl)C1C(=O)NC(O)C(=O)c1ccccc1 (stereo unspecified),inconclusive: -2.58%,
CC1CC2(C)Oc3ccccc3CC2C(C)C1CNCCCN(C)C (stereo unspecified),inconclusive: -12%,
Cc1cccc(N(CC(=O)NC2CCCCC2)C(=O)c2ccc(C)s2)c1,inactive,
Cc1coc2c1c(C)cc1oc(=O)c(CC(=O)NCCCCCC(=O)O)c(C)c12,inactive,
O=C(NCCO)c1cccc(Cl)c1,,"inconclusive: 0.259 µM [rising, full curve, poor fit]"
O=C(CCc1ccccc1)Nc1cc2c(cc1C(=O)O)OCCCO2,,"inconclusive: 18.4 µM [falling, partial curve]"
COc1cccc(C(C(=O)NC2CCCC2)N(C(=O)c2ccco2)c2ccccc2)c1OC (stereo unspecified),inconclusive: -5.47%,
CCCc1ccc(C(=O)O/N=C(\N)c2ccccn2)cc1,,"inconclusive: 31.6 µM [falling, single point]"
COc1ccc(C(=O)OCC#CCSc2nnc(-c3cccc4ccccc34)o2)cc1,inconclusive: 18.2%,
Cc1cccc(CC(=O)NC2CCCCCC2)c1,inactive,
COCCCN1CN=C(Nc2nc3ccccc3o2)NC1,inactive,
O=C(Nc1cc(Oc2ccccc2)cc([N+](=O)[O-])c1)C12CC3CC(C1)CC(n1cnc(Cl)n1)(C3)C2,inactive,
